Data from PubChem BioAssay AID493014 (National Center for Advancing Translational Sciences (NCATS), 2011).
The list shows a part of the results. Shown are side measurements of this screen, not its main read-out; they come without a call. Compounds called inactive in the main read-out are mostly missing here. The note in brackets gives the kind of curve behind each potency; many fits are weak.

Assay: qHTS Assay to Find Inhibitors of Chronic Active B-Cell Receptor Signaling
Settings: ABC-DLBCL IkBa-CBG/CBR reporter, luminescence ratio (green luciferase fused to IkBa over red control in TMD8 lymphoma cells), 4 h
Procedure, shortened: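 Cell line TMD8 (human ABC DLBCL), stably expressing tet-inducible CBG68-IkBa fusion and CBR; IMDM/0.5% FBS; cpd up to 46 uM; dox induction, 4 h, 37C/5% CO2; dual luminescence; green/red ratio; MG132 control.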

[1] = measured here: CBR red luminescence, cell number
[2] = measured here: IkBa-CBG green luminescence

| Compound | AC50 [1] | AC50 [2] |
| --- | --- | --- |
| Cc1ccc(NC(=O)CC(=O)c2ccc([N+](=O)[O-])cc2)cc1S(=O)(=O)Nc1cccc(Cl)c1 | 3.16 µM [falling, full curve, poor fit] | – |
| O=C1CC(C(=O)Nc2ccc(C(=O)O)cc2)C(c2ccccc2)O1 (stereo unspecified) | 35.5 µM [falling, single point] | – |
| CC(C)c1ccc(NC(=O)COc2nncc3ccccc23)cc1 | 9.2 µM [rising, partial curve, poor fit] | – |
| CCOc1cc(S(=O)(=O)NCCN2CCOCC2)c(C)cc1C | 20.6 µM [rising, single point] | – |
| CCOC(=O)c1c(NC(=O)CC2SC(=NC)N(C)C2=O)sc(C)c1C (stereo unspecified) | 25.9 µM [rising, single point] | – |
| CC1CN(c2nc3c(c(=O)n(Cc4ccc(Cl)cc4)c(=O)n3C)n2C)CC(C)O1 (stereo unspecified) | 1.41 µM [falling, partial curve, poor fit] | – |
| COc1ccc(NC(=O)CCCN2C(=O)C(c3ccccc3)Oc3cccnc32)c(OC)c1 (stereo unspecified) | 3.55 µM [rising, partial curve, poor fit] | – |
| O=C(O)CCc1ccc(-c2ccccc2)n1NC(=O)c1sc2ccccc2c1Cl | 29.1 µM [falling, single point] | – |
| O=C(CCC(=O)OCC(=O)c1ccc(F)cc1)NC1CCCCC1 | 7.31 µM [rising, full curve, poor fit] | – |
| C[C@H](NC(=O)c1nc[nH]c1C(=O)NCc1ccc(CNC(=O)OC(C)(C)C)cc1)c1ccccc1 | 29.1 µM [falling, single point] | – |
| CCCCC/C=C\C/C=C\C/C=C\C/C=C\CCCC(=O)O | 8.2 µM [rising, partial curve] | 5.8 µM [falling, partial curve] |
| Cc1ccc(/C=C2\SC(=S)N(CCCC(=O)Nc3ccc(O)cc3)C2=O)cc1 | 2.51 µM [falling, partial curve] | – |
| COc1ccccc1OCC(=O)Nc1cc2c(cc1C(=O)O)OCCCO2 | 20 µM [falling, partial curve, poor fit] | – |
| CCCn1nnnc1SCC(=O)Nc1cccc(NC(=O)c2ccco2)c1 | 1.46 µM [falling, full curve, poor fit] | – |
| O=C(CSc1n[nH]c(-c2ccco2)n1)Nc1sc2c(c1C(=O)Nc1ccccc1)CCCC2 | 10.3 µM [falling, partial curve] | – |
| CCCc1[nH]nc2c1C(/C(C)=C/c1ccccc1)C(C#N)=C(N)O2 (stereo unspecified) | 11.2 µM [falling, partial curve, poor fit] | – |
| CC(=O)N1CCc2cc(Br)cc(S(=O)(=O)CCC(=O)N3CCN(c4ccccn4)CC3)c21 | 17.8 µM [falling, single point] | – |
| O=C(NCCc1ccccc1)c1cnc2n(c1=O)CCS2 | 12.6 µM [falling, single point] | – |
| Cc1ccccc1N(CC(=O)N/N=C/c1ccc(N(C)C)cc1)C(=O)c1ccccc1 | 20.6 µM [falling, partial curve, poor fit] | – |
| O=C(N/N=C/c1cc(Cl)ccc1O)c1cccnc1 | 31.6 µM [falling, single point] | – |
| Nc1ccc(OCc2ccccc2)cc1 | 5.17 µM [falling, partial curve, poor fit] | – |

| Compound | AC50 [1] | AC50 [2] |
| --- | --- | --- |
| CSc1ccccc1C(=O)N1CCCC(CCC(=O)NCc2ccc(F)c(F)c2)C1 (stereo unspecified) | 25.1 µM [falling, single point] | – |
| O=C(NCCN1CCN(c2ccccc2Cl)CC1)Nc1ccccc1 | 17.8 µM [rising, partial curve, poor fit] | – |
| CCOC(=O)c1ccc(S(=O)(=O)N2CCN(C3CCCC3)CC2)cc1 | 2.82 µM [falling, partial curve] | – |
| C=CCn1c(SCC(=O)Nc2cc(C)c(Cl)cc2OC)nnc1-c1ccco1 | 14.1 µM [falling, single point] | – |
| O=C1N[C@H](Cc2ccccc2)COC(=O)[C@H](Cc2ccc(F)cc2)CC/C=C/C[C@H]1CC(=O)N(CCO)Cc1ccccc1 | 29.1 µM [falling, single point] | – |
| CC(=O)n1cc([C@@H]2C=C(C(=O)Nc3ccccc3)O[C@H](OCCCCO)C2)c2ccccc21 | 35.5 µM [falling, single point] | – |
| Cc1ccc2[nH]c(C)c(/C=C/c3cc[n+](C)cc3)c2c1 | 6.31 µM [falling, partial curve, poor fit] | – |
| Cc1ccc(/C=N/NC(=O)c2c[nH]c3ccccc23)o1 | 14.6 µM [falling, partial curve, poor fit] | – |
| Cc1cc(Nc2ccccc2)c2c([N+](=O)[O-])ccc(C)c2n1 | 25.9 µM [rising, single point] | – |
| C/C(=N\NC(=S)NCc1ccccc1)c1ccccc1 | 2.59 µM [rising, partial curve, poor fit] | – |
| COc1ccc(C(=O)NC2CCCc3ccccc32)cc1[N+](=O)[O-] (stereo unspecified) | 17.8 µM [rising, single point] | – |
| FC(F)(F)c1cc(-c2ccccc2)nc(N2CCCCCC2)n1 | 0.82 µM [falling, partial curve, poor fit] | – |
| Cc1cc(C(=O)O)ccc1-n1c(C)cc(C=C2C(=O)c3ccccc3C2=O)c1C | 35.5 µM [rising, partial curve, poor fit] | – |
| COc1cc(OC)cc(C(=O)NC(C)c2cnn(-c3ccccc3C)c2C)c1 (stereo unspecified) | 14.1 µM [falling, single point] | – |
| CN(CC(=O)NC1CCCCCCC1)S(=O)(=O)c1cccc2cccnc12 | 0.891 µM [rising, full curve, poor fit] | – |
| Cc1cccn2c(=O)c3cc(C(=O)NC4CCCC4)sc3nc12 | 2 µM [rising, full curve] | – |
| COc1ccc(C(=O)NCC(=O)OCC(=O)c2ccc(Cl)cc2)cc1OC | 12.6 µM [falling, partial curve, poor fit] | – |
| O=C(CSc1nc2ccccc2[nH]1)Nc1ccc(F)cc1 | 2.91 µM [falling, partial curve] | – |
| CCN(CC)C(=O)Cn1ccc(NC(C)=O)nc1=O | 17.8 µM [rising, single point] | – |
| O=C(O)c1cc2nccc(-c3ccco3)n2n1 | 10 µM [rising, partial curve] | – |
| COc1cccc(/C=N/NC(=O)Cn2nc([N+](=O)[O-])cc2C)c1 | 6.31 µM [rising, single point] | – |

Part of the list above, tab-delimited:
Compound	AC50 [1]	AC50 [2]
CCCn1nnnc1SCC(=O)Nc1cccc(NC(=O)c2ccco2)c1	1.46 µM [falling, full curve, poor fit]	–
O=C(CSc1n[nH]c(-c2ccco2)n1)Nc1sc2c(c1C(=O)Nc1ccccc1)CCCC2	10.3 µM [falling, partial curve]	–

Further entries follow.

| Compound | AC50 [1] | AC50 [2] |
| --- | --- | --- |
| COc1ccc(CNCC(O)(c2ccccc2)c2ccc(F)cc2)cc1OC (stereo unspecified) | 35.5 µM [falling, single point] | – |
| COc1ccccc1C(=O)C1CCCN(C(=O)c2cn3cc(Cl)ccc3n2)C1 (stereo unspecified) | 8.91 µM [falling, partial curve] | – |
| CCOc1ccc(N(CC(=O)NCc2ccc(F)cc2)S(=O)(=O)c2c(C)noc2C)cc1 | 6.51 µM [rising, single point] | – |
| c1ccc(-c2cc(-c3nn4c(-c5ccco5)nnc4s3)c3ccccc3n2)cc1 | 11.6 µM [falling, partial curve, poor fit] | – |
| COCc1cc(C)nc2sc(C(=O)Nc3cccc(OC)c3)c(N)c12 | 20 µM [falling, partial curve, poor fit] | – |
| O=C(O)c1oc2ccccc2c1CSc1ccc(Cl)cc1 | 5.62 µM [rising, single point] | – |
| CCOC(=O)c1[nH]c(C)c(C(=O)N(C)C)c1C | 9.2 µM [rising, partial curve] | – |
| Cc1ccc(O)c(-c2[nH]ncc2C(=O)c2ccc(Br)cc2)c1 | 20 µM [falling, single point] | – |
| Cc1c(C(=O)N2CCN(Cc3ccccc3)CC2)sc2ncnc(N3CCOCC3)c12 | 0.731 µM [falling, partial curve, poor fit] | – |
| COc1ccc2c(C)c(C(=O)O)oc2c1 | 7.31 µM [rising, partial curve] | 0.651 µM [rising, full curve, poor fit] |
| Cn1ccnc1SCC(=O)N(C1CCCCC1)C1CCCCC1 | 0.164 µM [rising, full curve, poor fit] | – |
| CCOC(=O)N1CCN(C(=O)/C=C/c2ccc(C(C)(C)C)cc2)CC1 | 0.398 µM [rising, partial curve, poor fit] | – |
| N=c1n(Cc2ccccc2)c2ccccc2n1CC(O)COc1ccc(Cl)cc1Cl (stereo unspecified) | 17.8 µM [falling, single point] | – |
| Cc1cccc(C(=O)Nc2nnc(C3=COCCO3)o2)c1 | 35.5 µM [falling, single point] | 35.5 µM [falling, single point] |
| CC(C)(C)C1CCc2nc(NC(=O)Cc3cn4ccsc4n3)sc2C1 (stereo unspecified) | 29.1 µM [falling, single point] | – |
| CCOC(=O)c1cc2c(=O)[nH]c(C(Cl)(Cl)Cl)nc2o1 | 35.5 µM [falling, single point] | – |
| C/C=C/c1ccc(OCCCCOc2c(OC)cccc2OC)c(OC)c1 | 6.51 µM [rising, single point] | – |
| O=[N+]([O-])c1cccc(/C=C/c2nc3ccc([N+](=O)[O-])cc3[nH]2)c1 | 0.794 µM [rising, full curve, poor fit] | – |
| Cc1c(C(=O)NC2=NCCS2)oc2ccccc12 | 6.51 µM [rising, single point] | – |
| COCCCN1C(=O)c2[nH]nc(-c3ccccc3O)c2C1c1cccc(Cl)c1 (stereo unspecified) | 35.5 µM [falling, single point] | – |
| COc1cccc(C(=O)Nc2c3c(nn2-c2cccc(C)c2C)CS(=O)C3)c1OC (stereo unspecified) | 0.316 µM [falling, full curve, poor fit] | – |
